Measured values reported in publication PMC12090178, “Exploring the Potential of Homologous Recombination Protein PALB2 in Synthetic Lethal Combinations” (ACS Chemical Biology, 2025).
No constants are given. Whether binding was seen depends on the method and setting. Some entries that bind do so weakly or less than the wild type.

Biological target: T1, FLU-GG-…
T1 sequence (peptide, fluorescein (FLU / FAM) on the N-terminus): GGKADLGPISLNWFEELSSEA
Assay: fluorescence polarisation; direct: PALB2C serially diluted from 4.4 μM, fluorescent peptide 10 nM; 20 mM HEPES, 100 mM NaCl, 1 mM DTT, 1 mM EDTA, 0.01% IGEPAL CA-630; 20 min at RT in the dark, read at 25 °C; both purified

binding: binds
B1: PALB2 C-terminal WD40 domain (domain or fragment, UniProt Q86YC2 835-1186)
chain: SVEQTETAELPASDSINPGNLQLVSELKNPSGSCSVDVSAMFWERAGCKEPCIITACEDVVSLWKALDAWQWEKLYTWHFAEVPVLQIVPVPDVYNLVCVALGNLEIREIRALFCSSDDESEKQVLLKSGNIKAVLGLTKRRLVSSSGTLSDQQVEVMTFAEDGGGKENQFLMPPEETILTFAEVQGMQEALLGTTIMNNIVIWNLKTGQLLKKMHIDDSYQASVCHKAYSEMGLLFIVLSHPCAKESESLRSPVFQLIVINPKTTLSVGVMLYCLPPGQAGRFLEGDVKDHCAAAILTSGTIAIWDLLLGQCTALLPPVSDQHWSFVKWSGTDSHLLAGQKDGNIFVYHYS
